Measurements: article PMC5154475, “Dual Therapeutic Action of a Neutralizing Anti-FGF2 Aptamer in Bone Disease and Bone Cancer Pain” (Molecular Therapy, 2016)
No constants are given. Whether binding was seen depends on the method and setting. Binding can be weak; no strength is given. For some assays here: Tags and fused reporters may be left off the sequences shown.

By UniProt entry, the sequences of proteins in these tests, tags left out. Residues count along the entry.
UniProt P22607, residues 23-375: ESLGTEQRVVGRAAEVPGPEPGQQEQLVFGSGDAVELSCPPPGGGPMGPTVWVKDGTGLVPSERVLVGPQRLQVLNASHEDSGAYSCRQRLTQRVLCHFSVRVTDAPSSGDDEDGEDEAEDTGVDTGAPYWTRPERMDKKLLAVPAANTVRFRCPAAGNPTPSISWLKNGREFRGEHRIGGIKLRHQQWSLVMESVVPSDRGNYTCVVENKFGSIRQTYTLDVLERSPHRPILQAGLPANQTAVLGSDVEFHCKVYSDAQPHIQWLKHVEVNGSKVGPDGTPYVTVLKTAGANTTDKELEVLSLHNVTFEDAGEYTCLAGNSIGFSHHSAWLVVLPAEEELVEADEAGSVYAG

Assays:
human FGFR4-Fc (human) = biological target: T1, human FGFR4-Fc (human) (UniProt P22455); test: SPR; Biacore 2000; FGFR/Fc fusion proteins immobilised onto a CM5 sensor chip via prebound protein A (1,000 RUs); FGF2 injected with or without the RNA aptamer APT-F2; for FGFR1: receptor 100 nmol/l, FGF2 100 nmol/l, heparin 100 nmol/l, APT-F2 150 nmol/l; both purified
T1 sequence: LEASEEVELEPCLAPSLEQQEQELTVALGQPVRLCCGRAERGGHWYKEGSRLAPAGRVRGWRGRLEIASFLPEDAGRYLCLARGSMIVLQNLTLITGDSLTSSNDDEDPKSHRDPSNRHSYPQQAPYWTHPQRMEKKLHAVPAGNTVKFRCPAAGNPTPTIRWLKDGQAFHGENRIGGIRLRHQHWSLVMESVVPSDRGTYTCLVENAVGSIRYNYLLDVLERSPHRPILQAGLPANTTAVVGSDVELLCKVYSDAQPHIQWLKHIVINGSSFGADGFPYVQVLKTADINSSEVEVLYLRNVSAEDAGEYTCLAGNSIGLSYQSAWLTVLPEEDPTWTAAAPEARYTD

[1] = biological target: human FGFR3(IIIc)-Fc (human) (UniProt P22607); test: as above

- binding (human FGFR4-Fc (human)): binds
- binding [1]: binds
Substance: recombinant human FGF2 (from UniProt P09038-2) (ligand)
